Reference: PubChem BioAssay AID720505 (Drosophila RNAi Screening Center, 2013)

- Assay: 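Fly regulators or components of the CRAC channel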 (primary screen)
- System: Drosophila S2R+ cells
- Reagent: long dsRNA against Drosophila genes
- Treatment: thapsigargin (2 µM) in calcium-free buffer to empty internal stores, then 2 mM calcium added back
- Detection: 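Stores emptied by 2 µM thapsigargin without calcium, then 2 mM calcium re-added; fluo-4 fluorescence followed by FLIPR in 384-well plates, per-well averaged endpoint, raw; two screen passes, some wells retested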
- Direction: calcium signal and retest calcium signal: higher = more calcium entry after store depletion
- Hit rule: 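Knock-downs counted as hits when calcium entry dropped relative to STIM1 positive and Rho1 negative controls present on each plate; roughly 1500 genes called, with reductions of differing size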
- Calls: active = called as lowering calcium entry; inactive = not called
The deposit covers about 20,000 reagents; below is a random part of those with a known target gene and a result. In the full data, about 2,100 (10%) are marked active. 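Raw plate signals without normalisation; calls rest on control-based scores that were not deposited; replicate 2 separates called from uncalled poorly.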 Reagents against one gene are numbered here. Names joined by + are all predicted targets of the reagent. Not stated in the record: the amount of reagent, the time to read-out.

no.	gene	dsRNA no.	calcium signal, replicate 1	calcium signal, replicate 2	retest calcium signal, replicate 1	retest calcium signal, replicate 2	activity call
1	Cpr66Cb (Cuticular protein 66Cb)	1	85.5	51.9			inactive
2	CG4611	1	105	88.5			inactive
3	mRpL2 (mitochondrial ribosomal protein L2)	1	102	91.9			inactive
4	CG31805	1	111	87.9			inactive
5	asRNA:CR42547 + CG15674	1	222	84.4			inactive
6	CG14960	1	75.6	128			inactive
7	PGRP-LB (Peptidoglycan recognition protein LB)	1	72.4	93.5			active
8	CG31626 + CG8677	1	57.7	101			active
9	Gr8a (Gustatory receptor 8a)	1	106	122			inactive
10	CG12920	1	121	119			inactive
11	CG16739	1	101	80.6			inactive
12	Ephrin	1	136	169			inactive
13	nonA (no on or off transient A)	1	96.1	105			inactive
14	sunn	1	115	120			inactive
15	CG14377	1	144	167			inactive
16	CG12402	1	111	165			inactive
17	Tmem63 (Transmembrane protein 63)	1	118	75.5			inactive
18	Pgant4 (Polypeptide N-Acetylgalactosaminyltransferase 4)	1	166	114			inactive
19	CG10839	1	119	149			inactive
20	P58IPK	1	188	105			inactive
21	Hacd2 (3-hydroxyacyl-CoA dehydratase 2)	1	97.9	106			inactive
22	CG7544	1	78.7	141			inactive
23	CG3788	1	145	197			inactive
24	Gr21a (Gustatory receptor 21a)	1	166	156			inactive
25	Ubr3 (Ubr3 ubiquitin ligase)	1	152	151			inactive
26	Ubr3 (Ubr3 ubiquitin ligase)	2	177	132			inactive
27	CG10834	1	107	100			inactive
28	CG9616	1	86.5	53.1			inactive
29	CG9917	1	115	131			inactive
30	CG34204	1	80.3	6016			inactive
31	CG31815	1	65.1	117			active
32	CecB (Cecropin B)	1	141	79.7			inactive
33	Ptpmeg (Protein tyrosine phosphatase Meg)	1	123	110			inactive
34	gom (gomdanji)	1	61.6	192			inactive
35	CG15546	1	149	120			inactive
36	CG15546	2	116	89.5			inactive
37	Coprox (Coproporphyrinogen oxidase)	1	105	160	123	99.7	inactive
38	tara (taranis)	1	150	191			inactive
39	tara (taranis)	2	162	142			inactive
40	InR (Insulin-like receptor)	1	123	123			inactive
41	omd (oocyte maintenance defects)	1	92.2	73.4			inactive
42	CG17816	1	95.7	194	8305	135	inactive
43	Cp36 (Chorion protein 36)	1	242	97.5			inactive
44	CG8419	1	128	122			inactive
45	FASN1 (Fatty acid synthase 1)	1	131	184			inactive
46	Phlpp (PH domain leucine-rich repeat protein phosphatase)	1	133	103			inactive
47	Phlpp (PH domain leucine-rich repeat protein phosphatase)	2	104	121			inactive
48	qm (quemao)	1	83.4	36.7			inactive
49	eIF4E6 (eukaryotic translation initiation factor 4E6)	1	175	179			inactive
50	bwa (brain washing)	1	143	7107			inactive
51	bwa (brain washing)	2	104	94.3			inactive
52	Ptx1	1	159	125			inactive
53	Cyp9b1 (Cytochrome P450 9b1)	1	160	200			inactive
54	Scgalpha (Sarcoglycan alpha)	1	177	121			inactive
55	CG15221	1	113	128			inactive
56	lncRNA:CR32730 (long non-coding RNA:CR32730)	1	83	95.2			inactive
57	Vajk2	1	118	119			inactive
58	CG7567	1	151	110			inactive
59	Spn42Db (Serpin 42Db)	1	87.3	111			inactive
60	CG1677	1	245	104			inactive
61	CG10435	1	112	144			inactive
62	NP15.6	1	89.8	115			active

Called active (from the list above):
gene	dsRNA no.	calcium signal, replicate 1	calcium signal, replicate 2	retest calcium signal, replicate 1	retest calcium signal, replicate 2	activity call
PGRP-LB (Peptidoglycan recognition protein LB)	1	72.4	93.5			active
CG31626 + CG8677	1	57.7	101			active
CG31815	1	65.1	117			active
NP15.6	1	89.8	115			active

Further results:
no.	gene	dsRNA no.	calcium signal, replicate 1	calcium signal, replicate 2	retest calcium signal, replicate 1	retest calcium signal, replicate 2	activity call
63	CG17380	1	283	152			inactive
64	robl37BC	1	154	107			inactive
65	betaggt-I (beta subunit of type I geranylgeranyl transferase)	1	166	86.2			inactive
66	CG9525	1	109	118			inactive
67	PIG-T (Phosphatidylinositol glycan anchor biosynthesis class T)	1	247	162			inactive
68	stg (string)	1	73.9	76.6			active
69	upd1 (unpaired 1)	1	76.2	106			inactive
70	Tg (Transglutaminase)	1	123	111			inactive
71	Rif1 (Rap1 interacting factor 1)	1	75	92.7			inactive
72	l(1)G0320 (lethal (1) G0320)	1	167	113			inactive
73	CG34181	1	79.7	75.6			active
74	Snap24 (Synaptosomal-associated protein 24kDa)	1	167	101			inactive
75	Son (Son RNA binding protein)	1	140	152			inactive
76	CG12531	1	65.7	106			active
77	CG42566	1	124	9504			inactive
78	Ir67c (Ionotropic receptor 67c)	1	88.7	226			inactive
79	Sox102F	1	110	157			inactive
80	RpL21 (Ribosomal protein L21)	1	69.4	92.3			active
81	CG16956	1	127	138			inactive
82	htl (heartless)	1	163	296			inactive
83	atilla	1	98.9	161			inactive
84	LeuRS (Leucyl-tRNA synthetase)	1	194	124			inactive
85	CG34199	1	144	87.4			inactive
86	Cypl (Cyclophilin-like)	1	99.8	61.8			inactive
87	yellow-b	1	70.7	95.1			inactive
88	CG31176	1	182	117			inactive
89	CG31176	2	176	77.6			inactive
90	Axn (Axin)	1	221	259	5597	140	inactive
91	Tpc2	1	139	202			inactive
92	CG4363	1	175	117			inactive
93	Dsp1 (Dorsal switch protein 1)	1	66.9	51.7			active
94	Dsp1 (Dorsal switch protein 1)	2	103	95.5			inactive
95	spict (spichthyin)	1	101	122			inactive
96	Sgs8 (Salivary gland secretion 8)	1	82.8	93.3			inactive
97	CG10000	1	194	197			inactive
98	clos (closca)	1	102	160			inactive
99	clos (closca)	2	137	121			inactive
100	clos (closca)	3	142	129			inactive
101	clos (closca)	4	57.4	155			active
102	clos (closca)	5	100	184			inactive
103	Tdc2 (Tyrosine decarboxylase 2)	1	99.2	160			inactive
104	CG16711	1	100	77.8			inactive
105	CG11030	1	126	98.2			inactive
106	Idh3g	1	120	124			inactive
